Laboratory results from patent publication US20250082600A1, “TREATING HAEMATOLOGICAL MALIGNANCIES BY MEANS OF SATRAPLATIN” (PHARMA& SCHWEIZ GMBH, priority 2022, published 2025).
At least one structure is not confirmed: it was looked up by name or label, or the drawing left a doubt.

Test system: MTAP deficient cell lines
Test: Satraplatin IC50 plotted against MTAP status
Type: cell-based, human
Conditions: p=3.03e-07, FIG. 6
Description: Cell lines and reagents. All cell lines were cultured in appropriate media supplemented with 10-15% fetal bovine serum (Cat #FND500, ExCell Bio, China) at a temperature of 37° C., 5% CO2 and 95% humidity. Cell viability was measured using the CTG Luminescent Cell Viability Assay (Promega, Madison, WI, USA) by standard procedures as described below. Satraplatin was purchased from MedChemExpress (Shanghai, PRC) and cisplatin from Qilu Pharm (Jinan, Shandong, PRC), respectively. 1 mM stock solutions of both drugs were established for storage at −20° C. as previously described (5).
Determination of the half maximal inhibition concentration (IC50). Cells were harvested during the logarithmic growth period and cell numbers counted using Count-star (Inno-Alliance Biotech, USA). Cell density was adjusted to 4.44×10^4 cells/mL with the respective culture medium. […] The test plate was incubated for 72 h in the humidified incubator at 37° C. with 5% CO2, and then evaluated using CTG cell viability assay (Promega). […] Luminescence was recorded using EnVision Multi Label Reader (Perkin Elmer, Richmond, CA, USA).
Data Analysis. The data were analyzed and visualized using GraphPad Prism 5.0 (GraphPad Software, San Diego, CA, USA) and Think-Cell 11 (Think-Cell Software, Berlin, Germany). […] The absolute IC50 was calculated according to the dose-response curve generated by GraphPad Prism 5.0. […]

CC(=O)[O][Pt]([NH2])([Cl])([Cl])([NH]C1CCCCC1)[O]C(C)=O [satraplatin, bis (acetato) ammine dichloro (cyclohexylamine) platinum (IV)]
efficacy (IC50) in MTAP deficient cell lines: significantly higher efficacy
